The text below walks through data of PMC4831773.

No constants are given. Whether binding was seen depends on the method and setting. A result given as binding can be weak or reduced; the word gives no strength. For part of these data: Where a sequence is shown, tags or fusion partners need not be part of it. For part of these data: In cells and extracts the contact can be indirect.

Experiment [1] addresses T1, Opaque2, endogenous in immature maize kernels (maize (endogenous in 15-DAP kernels)) (UniProt P12959).
T1 sequence: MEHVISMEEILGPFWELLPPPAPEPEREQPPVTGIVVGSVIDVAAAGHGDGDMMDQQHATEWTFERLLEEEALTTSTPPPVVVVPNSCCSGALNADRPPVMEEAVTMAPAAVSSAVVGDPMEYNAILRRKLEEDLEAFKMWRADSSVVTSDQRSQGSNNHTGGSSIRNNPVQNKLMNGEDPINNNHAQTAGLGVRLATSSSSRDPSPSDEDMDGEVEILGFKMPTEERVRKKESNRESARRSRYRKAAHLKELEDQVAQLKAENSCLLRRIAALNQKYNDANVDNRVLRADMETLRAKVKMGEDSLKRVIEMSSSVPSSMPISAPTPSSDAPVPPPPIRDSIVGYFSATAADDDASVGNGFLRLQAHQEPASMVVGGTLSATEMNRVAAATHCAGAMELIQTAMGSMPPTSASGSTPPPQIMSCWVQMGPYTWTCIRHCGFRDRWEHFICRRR
Put plainly: co-IP; 15-DAP maize kernel extract (50 mM Tris-Cl, 2.5 mM EDTA, 150 mM NaCl, 0.2% NP-40, 20% glycerol); precipitated with O2 antibody and Protein A Sepharose; blotted with ZmMADS47 and O2 antibodies.

Experiment [2] deals with T2, Opaque2 bZIP fragment O2-2 fused to the GAL4 DNA binding domain (pGBK-T7-O2(bZIP)) (maize (Zea mays)) (UniProt P12959).
T2 sequence: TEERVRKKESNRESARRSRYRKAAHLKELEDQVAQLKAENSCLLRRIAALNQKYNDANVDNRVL
Put plainly: two-hybrid; yeast AH109; pGAD-T7-ZmMADS47 as prey, pGBK-T7-O2(bZIP) as bait; growth on QDO (SD/-Leu/-Trp/-Ade/-His) with 10 mM 3-AT.

Experiment [3] has as its target GST-tagged ZmMADS47 (ZmMADS47 ORF in pGEX-4T-1) (maize (Zea mays)). Put plainly: pull-down; GST or GST fusion held on Immobilized Glutathione Agarose, washed, incubated with His-O2 for more than 2 hours at 4°C; eluted with 100 mM glutathione; western blot; only the target purified.

As for “ZmMADS47, endogenous in immature maize kernels”, in experiment [1], the binding result is “binds”.
Take “ZmMADS47, full-length ORF fused to the GAL4 activation domain (pGAD-T7-ZmMADS47) (from UniProt B6TCJ4)”: the binding entry in experiment [2] is recorded as “binds”.

B1: His-tagged Opaque2 (O2 ORF in pET-32a) (protein, UniProt P12959 1-453)
chain: T1 sequence
Turning to B1, in experiment [3], the binding result is recorded as “binds”.
